Assay results as given in PMC7862700.
Only a part is listed here, and it is no random draw. For some assays here: At the low end of the ranking, values are background and their order means little. This is one part of the list. For some assays here: Construct or isoform of the protein are uncertain.

Sequences of proteins named here, by UniProt entry; tags and fusion partners are left off. A change or cut given only in a name is not applied to a line headed by its entry.
UniProt P32519: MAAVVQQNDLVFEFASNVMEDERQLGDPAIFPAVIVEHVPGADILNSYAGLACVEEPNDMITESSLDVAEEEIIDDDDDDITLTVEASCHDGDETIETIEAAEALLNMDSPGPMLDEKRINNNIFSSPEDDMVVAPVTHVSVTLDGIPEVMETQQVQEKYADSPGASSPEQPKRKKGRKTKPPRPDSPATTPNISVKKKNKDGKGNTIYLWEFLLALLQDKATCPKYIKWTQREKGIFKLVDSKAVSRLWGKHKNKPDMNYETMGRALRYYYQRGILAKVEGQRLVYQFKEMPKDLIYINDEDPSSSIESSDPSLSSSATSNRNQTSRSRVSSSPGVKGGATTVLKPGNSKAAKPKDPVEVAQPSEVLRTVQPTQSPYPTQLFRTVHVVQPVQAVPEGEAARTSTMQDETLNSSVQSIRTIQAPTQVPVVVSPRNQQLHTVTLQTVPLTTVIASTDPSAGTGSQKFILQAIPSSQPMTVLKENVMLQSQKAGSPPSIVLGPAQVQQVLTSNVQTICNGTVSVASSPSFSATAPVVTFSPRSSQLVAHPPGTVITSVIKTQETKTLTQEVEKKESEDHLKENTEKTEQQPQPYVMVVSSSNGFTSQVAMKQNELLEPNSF

How the values were obtained:
Test in all cases: DAPPL (digital affinity profiling via proximity ligation, sequencing)
Conditions in all cases: 10 mM Tris-HCl pH 7.5, 50 mM NaCl, 1 mM DTT, 4% glycerol, room temperature, 30 min; GST-TFs on glutathione beads, 16-mer random dsDNA library, 0.1% …; high values mean tight binding; double strand, one strand shown; scale: fold enrichment (6-mer frequency, TF over GST control)
[1] = biological target: T1, ETV4 (UniProt P43268)
T1 sequence: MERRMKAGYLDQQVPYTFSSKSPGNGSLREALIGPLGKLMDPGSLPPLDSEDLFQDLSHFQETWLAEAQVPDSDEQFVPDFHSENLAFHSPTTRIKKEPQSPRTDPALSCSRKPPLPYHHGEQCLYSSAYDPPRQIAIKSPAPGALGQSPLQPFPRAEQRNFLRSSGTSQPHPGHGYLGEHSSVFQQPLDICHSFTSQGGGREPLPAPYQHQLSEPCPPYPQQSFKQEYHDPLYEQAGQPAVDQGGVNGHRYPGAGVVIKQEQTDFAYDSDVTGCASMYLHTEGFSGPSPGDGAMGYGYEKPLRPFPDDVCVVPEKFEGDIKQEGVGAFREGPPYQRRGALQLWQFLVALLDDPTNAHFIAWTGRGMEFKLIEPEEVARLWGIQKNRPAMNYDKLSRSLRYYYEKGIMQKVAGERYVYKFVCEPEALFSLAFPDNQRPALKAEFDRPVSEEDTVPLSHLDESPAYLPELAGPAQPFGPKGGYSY

[2] = biological target: T2, ERF (UniProt P50548)
T2 sequence: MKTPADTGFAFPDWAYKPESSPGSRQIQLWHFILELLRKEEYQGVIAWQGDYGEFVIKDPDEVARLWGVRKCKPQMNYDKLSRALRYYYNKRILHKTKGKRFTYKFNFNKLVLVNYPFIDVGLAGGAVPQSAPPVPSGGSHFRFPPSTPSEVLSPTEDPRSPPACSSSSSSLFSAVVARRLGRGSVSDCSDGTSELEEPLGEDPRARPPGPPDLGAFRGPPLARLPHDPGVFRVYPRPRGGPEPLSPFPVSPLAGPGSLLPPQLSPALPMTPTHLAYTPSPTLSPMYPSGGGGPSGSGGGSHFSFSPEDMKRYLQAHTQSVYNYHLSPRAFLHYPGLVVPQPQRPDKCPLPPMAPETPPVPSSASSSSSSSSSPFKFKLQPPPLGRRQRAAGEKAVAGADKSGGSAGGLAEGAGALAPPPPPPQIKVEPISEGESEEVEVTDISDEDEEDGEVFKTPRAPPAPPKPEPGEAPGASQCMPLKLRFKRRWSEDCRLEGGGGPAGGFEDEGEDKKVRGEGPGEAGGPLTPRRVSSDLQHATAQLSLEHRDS

[3] = biological target: ELF1 (UniProt P32519)

Sequence | binding signal [1] | binding signal [2] | binding signal [3]
ATTTAA | 1.04 | 1.21 | 
ACACCG | 1.09 | 1 | 0.992
TCATCT | 1.17 | 1.21 | 1.3
CTCGAA | 1.15 | 1.22 | 1.18
ACATGC | 1.3 | 1.37 | 
TCTGTG | 1.25 | 1.15 | 1.12
CCCCTT | 1.59 | 1.53 | 
ACTTCT | 1.49 |  | 1.52
ACTGCC | 1.32 |  | 1.42
CTCATA | 1.45 |  | 1.38
TGACCA | 1.28 |  | 1.29

Part of the list above in a different format.
Sequence	binding signal [1]	binding signal [2]	binding signal [3]
ACTTCT	1.49		1.52
ACTGCC	1.32		1.42
